Laboratory results taken from patent US20210332131A1.
No constants are given. Whether binding was seen depends on the method and setting. Some entries that bind do so weakly or less than the wild type.

Amino acid sequences for entries named in this document (tags omitted). Residues count along the entry.
UniProt Q08722, residues 19-323: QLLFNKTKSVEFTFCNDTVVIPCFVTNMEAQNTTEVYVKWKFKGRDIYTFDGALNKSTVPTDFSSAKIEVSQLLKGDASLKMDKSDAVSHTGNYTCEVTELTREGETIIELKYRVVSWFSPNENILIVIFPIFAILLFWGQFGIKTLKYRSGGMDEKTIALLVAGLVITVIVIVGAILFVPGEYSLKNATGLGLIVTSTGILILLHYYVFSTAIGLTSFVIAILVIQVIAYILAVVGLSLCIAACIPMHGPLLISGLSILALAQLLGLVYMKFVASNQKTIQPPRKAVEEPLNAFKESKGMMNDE

Target: CD47 (human) (UniProt Q08722)
Assay: flow cytometry on SKBR3 WT (CD20-/CD47+) and SKBR3-CD20 cells, detection anti-IgA PE

binding: binds
B1: IgA3.0-2.3D11 (antibody, V domains shown)
VH: QVQLQESGPGLVKPSGTLSLTCAVSGVSIRSINWWNWVRQPPGKGLEWIGEIYHSGSTNYNPSLKSRVTISVDKSKNQFSLKLNSVTAADTAVYYCARDGGIAVTDYYYYGLDVWGQGTTVTVSS
VL: EIVLTQSPATLSLSPGERATLSCRASESVSSNLAWYQQKPGQAPRLLIYGAFNRATGIPARFSGSGSGTDFTLTISSLEPEDFAVYYCQQRSDWFTFGGGTKVEIKR
